For part of these data: For expression read-outs the peptide stands for its source gene, whose mRNA was measured; the gene is not named for every peptide.
Tests used:
[1] = test system: HLA-A*02 molecules of primary tumors; test: Identification and relative LC-MS quantitation of HLA-A*02 tumor-associated peptides presented on tissue samples (XPRESIDENT presentation profiles); set-up: species or system human; settings: for number of cancer tissues on which the peptide was found presented / number of cell lines on which the peptide was found presented / number of normal tissues on which the peptide was found presented: FIG. 1 presentation profile, shown are only samples where the peptide was found to be presented; for presentation on various cancer entities: cancer entities named in the text as examples from Table 8
[2] = test system: source genes of selected peptides; test: Expression profiling of source genes by in-house RNAseq, tumor vs normal tissues (target coverage); set-up: species or system human
[3] = Table 8A: selected HLA-A*02-binding tumor-associated peptides, cancer entities on which the peptide was found presented
[4] = Table 8B: selected HLA-A*02 peptides, presentation on additional cancer entities

Row | Substance | Peptide Presentation on cancer entities [1, 3] | Peptide Presentation on cancer entities [1, 4] | also measured
1 | 53: peptide found in ATR (gene looked up) (SLLSHVIVA; listed as Homo sapiens) [compound 53] | clPC, RCC, GBC_CCC, UBC, NSCLC | HCC, AML, OC, OSCAR, HNSCC, MEL, CLL, NHL, BRCA | Target coverage, over-expression of source gene, AML ([2]; AML (N = 7), over-expression = more than 1.5-fold higher expression on tumor vs highest-expressing relevant normal tissue, in-house RNASeq): I (<19% over-expression = I); Target coverage, over-expression of source gene, BRCA ([2]; BRCA (N = 10), over-expression = more than 1.5-fold vs highest normal tissue, in-house RNASeq): II (20-49% = II); Target coverage, over-expression of source gene, CLL ([2]; CLL (N = 10), over-expression = more than 1.5-fold vs highest normal tissue, in-house RNASeq): I (<19% over-expression = I); Target coverage, over-expression of source gene, CRC ([2]; CRC (N = 20), over-expression = more than 1.5-fold vs highest normal tissue, in-house RNASeq): II (20-49% = II); Target coverage, over-expression of source gene, GB ([2]; GB (N = 24), over-expression = more than 1.5-fold vs highest normal tissue, in-house RNASeq): I (<19% over-expression = I); Target coverage, over-expression of source gene, HCC ([2]; HCC (N = 15), over-expression = more than 1.5-fold vs highest normal tissue, in-house RNASeq): I (<19% over-expression = I); Target coverage, over-expression of source gene, OC ([2]; OC (N = 12), over-expression = more than 1.5-fold vs highest normal tissue, in-house RNASeq): II (20-49% = II); Target coverage, over-expression of source gene, OSCAR ([2]; OSCAR (N = 11), over-expression = more than 1.5-fold vs highest normal tissue, in-house RNASeq): II (20-49% = II); Target coverage, over-expression of source gene, PC ([2]; PC (N = 26), over-expression = more than 1.5-fold vs highest normal tissue, in-house RNASeq): I (<19% over-expression = I); Target coverage, over-expression of source gene, RCC ([2]; RCC (N = 10), over-expression = more than 1.5-fold vs highest normal tissue, in-house RNASeq): I (<19% over-expression = I); Target coverage, over-expression of source gene, SCLC ([2]; SCLC (N = 10), over-expression = more than 1.5-fold vs highest normal tissue, in-house RNASeq): II (20-49% = II); Target coverage for source genes of selected peptides, GBC_CCC (N = 10) ([2]; gallbladder adenocarcinoma and cholangiocarcinoma, share of tumors with more than 1.5-fold higher expression than the highest-expressing relevant normal tissue, in-house RNAseq): II (20-49% = II); Target coverage for source genes of selected peptides, GC (N = 11) ([2]; gastric cancer, share of tumors with more than 1.5-fold higher expression than the highest-expressing relevant normal tissue, in-house RNAseq): I (<19% over-expression = I); Target coverage for source genes of selected peptides, HNSCC (N = 10) ([2]; head and neck small cell carcinoma, share of tumors with more than 1.5-fold higher expression than the highest-expressing relevant normal tissue, in-house RNAseq): I (<19% over-expression = I); Target coverage for source genes of selected peptides, MEL (N = 10) ([2]; melanoma, share of tumors with more than 1.5-fold higher expression than the highest-expressing relevant normal tissue, in-house RNAseq): I (<19% over-expression = I); Target coverage for source genes of selected peptides, NHL (N = 10) ([2]; non-Hodgkin lymphoma, share of tumors with more than 1.5-fold higher expression than the highest-expressing relevant normal tissue, in-house RNAseq): III (50-69% = III); Target coverage, over-expression of source gene, pNSCLC ([2]; pNSCLC (N = 11), over-expression = more than 1.5-fold vs highest normal tissue, in-house RNASeq): II (20-49% = II); Target coverage for source genes of selected peptides, PCA (n = 10) ([2]; prostate cancer and benign prostate hyperplasia, share of tumors with more than 1.5-fold higher expression than the highest-expressing relevant normal tissue, in-house RNAseq): I (<19% over-expression = I); Target coverage for source genes of selected peptides, UBC (N = 10) ([2]; urinary bladder cancer, share of tumors with more than 1.5-fold higher expression than the highest-expressing relevant normal tissue, in-house RNAseq): I (<19% over-expression = I); Target coverage for source genes of selected peptides, UTC (N = 10) ([2]; uterine cancer, share of tumors with more than 1.5-fold higher expression than the highest-expressing relevant normal tissue, in-house RNAseq): II (20-49% = II)
2 | 77 (IVLSTIASV; listed as Homo sapiens) [compound 77] | clPC, CRC, PCA | AML | 
3 | 78 (LLWGHPRVA; listed as Homo sapiens) [compound 78] |  | NSCLC | 
4 | 79 (SLVPLQILL; listed as Homo sapiens) [compound 79] |  | HCC | 
5 | 80 (TLDEYLTYL; listed as Homo sapiens) [compound 80] |  | HCC | 
6 | 81 (VLFLGKLLV; listed as Homo sapiens) [compound 81] | CRC, UBC | HNSCC | 
7 | 82 (VLLRVLIL; listed as Homo sapiens) [compound 82] | NSCLC, TC |  | 
8 | 83 (ELLEYLPQL; listed as Homo sapiens) [compound 83] | PC, GBC_CCC |  | 
9 | 84 (FLEEEITRV; listed as Homo sapiens) [compound 84] | CRC, GC |  | 
10 | 85 (STLDGSLHAV; listed as Homo sapiens) [compound 85] | OSCAR, PCA, GC |  | 
11 | 86 (LLVTSLVVV; listed as Homo sapiens) [compound 86] |  | HCC, GBC_CCC | 
12 | 87 (YLTEVFLHVV; listed as Homo sapiens) [compound 87] | CLL, NHL |  | 
13 | 88 (ILLNTEDLASL; listed as Homo sapiens) [compound 88] |  | RCC | 
14 | 89 (YLVAHNLLL; listed as Homo sapiens) [compound 89] | RCC |  | 
15 | 91 (SSLEPQIQPV; listed as Homo sapiens) [compound 91] |  | MEL, CLL | 
16 | 93 (SLLTQPIFL; listed as Homo sapiens) [compound 93] | RCC, HCC | GBC_CCC | 
17 | 322 (ALVSGGVAQA; listed as Homo sapiens) [compound 322] | GBC_CCC, OSCAR, BRCA, CLL, UBC, HCC, PC, SCLC, NSCLC, CRC, OC, NHL | AML, GC, clPC, UTC, MEL | 
18 | 323 (ILSVVNSQL; listed as Homo sapiens) [compound 323] | CRC, GC, BRCA, OC, CLL, NSCLC, NHL | MEL, GBC_CCC, AML, OSCAR | 
19 | 324 (AIFDFCPSV; listed as Homo sapiens) [compound 324] | NSCLC, CRC, GC, MEL, GB, OSCAR, CLL | BRCA, NHL, UTC, AML, HNSCC | 
20 | 325 (RLLPKVQEV; listed as Homo sapiens) [compound 325] | OSCAR, NSCLC, CRC, SCLC, OC | AML, BRCA, UBC, GC | 

Row | Substance | Peptide Presentation on cancer entities [1, 3] | Peptide Presentation on cancer entities [1, 4] | also measured
21 | 326 (SLLPLVWKI; listed as Homo sapiens) [compound 326] | NSCLC, CRC, GB, RCC, MEL, CLL, TC | AML | 
22 | 327 (SIGDIFLKY; listed as Homo sapiens) [compound 327] | GC, GB, CRC, RCC, NSCLC | MEL, AML | 
23 | 328 (SVDSAPAAV; listed as Homo sapiens) [compound 328] | SCLC, OC, PC, OSCAR, RCC, NSCLC, UBC | NHL, BRCA, AML, UTC, CLL, HNSCC, MEL | 
24 | 330 (FLWPKEVEL; listed as Homo sapiens) [compound 330] | NSCLC, BRCA, SCLC, OC, CLL, NHL | AML | 
25 | 333 (GTFLEGVAK; listed as Homo sapiens) [compound 333] | RCC, CLL, HCC | MEL, NSCLC | 
26 | 334 (GRADALRVL; listed as Homo sapiens) [compound 334] | BRCA, SCLC, CLL | MEL, GBC_CCC, AML | 
27 | 336 (GLMDGSPHFL; listed as Homo sapiens) [compound 336] | PC, NSCLC | MEL | 
28 | 339 (VLGPGPPPL; listed as Homo sapiens) [compound 339] | NSCLC, clPC, CLL, NHL | MEL, GB, UTC, AML, HCC | 
29 | FITDFYTTV (listed as Homo sapiens) [SEQ ID NO: 66] |  |  | number of cancer tissues on which the peptide was found presented [1]: 13; number of cell lines on which the peptide was found presented [1]: 1; number of normal tissues on which the peptide was found presented [1]: 1
30 | HLYNNEEQV (listed as Homo sapiens) [SEQ ID NO: 16] |  |  | number of cancer tissues on which the peptide was found presented [1]: 15; number of cell lines on which the peptide was found presented [1]: 1
31 | LLLPLLPPLSPSLG (listed as Homo sapiens) [SEQ ID NO: 33] |  |  | number of cancer tissues on which the peptide was found presented [1]: 22; number of cell lines on which the peptide was found presented [1]: 1; number of normal tissues on which the peptide was found presented [1]: 1
32 | RLLPKVQEV (listed as Homo sapiens) [SEQ ID NO: 325] |  |  | number of cancer tissues on which the peptide was found presented [1]: 22; number of cell lines on which the peptide was found presented [1]: 4
33 | SEQ ID No. 1 (PLWGKVFYL; listed as Homo sapiens) |  |  | presentation on various cancer entities [1]: urinary bladder cancer, esophageal cancer, including cancer of the gastric-esophageal junction, hepatocellular carcinoma, non-small cell lung cancer, and pancreatic cancer
34 | SEQ ID No. 2 (ALYGKLLKL; listed as Homo sapiens) |  |  | presentation on various cancer entities [1]: renal cancer, esophageal cancer, including cancer of the gastric-esophageal, glioblastoma
35 | SLLALPQDLQA (listed as Homo sapiens) [SEQ ID NO: 40] |  |  | number of cancer tissues on which the peptide was found presented [1]: 21
36 | SLLSHVIVA (listed as Homo sapiens) [SEQ ID NO: 53] |  |  | number of cancer tissues on which the peptide was found presented [1]: 21; number of cell lines on which the peptide was found presented [1]: 3
37 | VLGPGPPPL (listed as Homo sapiens) [SEQ ID NO: 339] |  |  | number of cancer tissues on which the peptide was found presented [1]: 19; number of cell lines on which the peptide was found presented [1]: 2
38 | VLSPFILTL (listed as Homo sapiens) [SEQ ID NO: 42] |  |  | number of cancer tissues on which the peptide was found presented [1]: 18
39 | YVLPKLYVKL (listed as Homo sapiens) [SEQ ID NO: 35] |  |  | number of cancer tissues on which the peptide was found presented [1]: 8; number of normal tissues on which the peptide was found presented [1]: 1
